For the series, the target named is DrOxyR (oxidized or DTT-reduced) (Deinococcus radiodurans) (UniProt Q9RWQ1). In words: EMSA. To be noted: 10 mM Tris-Cl pH 8.0, 50 mM NaCl, 1 mM EDTA, 5% glycerol, 50 ug/mL BSA, 5 ug/mL calf thymus DNA, 0.05 pmol DNA, recombinant protein, residues 1-317, protein details: His-tag (pET28a, NdeI/BamHI), label: FITC, probe letters rebuilt from the primers and the genome, part of a longer molecule. In general terms: Mobility shift assays separate free from complexed probe on a gel.

Sequences of proteins named here, by UniProt entry; tags and fusion partners are left off.
UniProt Q9RWQ1, entry or part of it: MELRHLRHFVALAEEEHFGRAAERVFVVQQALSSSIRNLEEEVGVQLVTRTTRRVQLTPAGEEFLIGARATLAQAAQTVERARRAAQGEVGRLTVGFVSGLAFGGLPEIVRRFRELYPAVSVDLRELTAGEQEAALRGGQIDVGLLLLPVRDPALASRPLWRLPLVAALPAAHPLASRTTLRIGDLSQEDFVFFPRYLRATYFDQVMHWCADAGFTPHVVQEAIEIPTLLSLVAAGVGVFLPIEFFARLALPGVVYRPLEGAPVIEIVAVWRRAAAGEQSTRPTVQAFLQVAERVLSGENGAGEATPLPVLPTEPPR

For at least one entry, the source does not settle the construct or the ends of the probe.

As for “GCGCAGGATAGCGGATGCCCCGGCGCAGCGCGGTGTCCTGCTGCTCTGCCCCCCCCTGCGCCTTCTTCTTGAACCCACTGCACAGAACCCACTGGACAGAACCCACTGCACAGCCGCCGCGAGGGCCTGAGGGCCATGGAGACCGAGGGCCCTGGACATTGAGAATGATTCTCAATATGGTGCAGGGAGCTTCGGGCCTCTTGCCGCGCAGCAGAGCCAGCGAGGCGAAGGAGAGTGTATGAGCGACGAAAACAACAAGGGCGTCGG (double strand) [dr1998 (katE) upstream region]”, the binding result (oxidized) is “binds” and the binding result (reduced, 200 mM DTT) is recorded as “binds”.
As to “CTGGGCGCAGCTTGAAGTTAGCGACCACCGACTGCTGTTTGCCCAAAGGTAAAGAAAATGGCTATGGGCGCCCCTCGCGGGCCCGGCGTAGGGTGCGTTCATGACGAAGAAAAGCACCAAGAGCGAGGCAGCCAGCAAGACCAAAAAGAGCGGCGTG (double strand) [dr2263 (dps) upstream region]”, the binding result is, setting by setting: (oxidized) “binds”; (reduced, 200 mM DTT) “binds”.
As to “AGGCTGGGAGAACGGGAATCCATGGCCTTTATTTTAGGCGCGACTAAAATAGTTGTCCAACGGCGTGGGCTTGAGTTCGTCTTAAAGGCCGACTTTTTTGTGAAAAATGCCTCTTTCCCAAGATCCAGTCAGATTCCGTCACGCTGGGTCATCTGGTTTTCAGGGTGCTGTCACATATTTGCTAGAGGCTC (double strand) [dr1709 (mntH) upstream region]”, the binding result was “binds” (oxidized) and “binds” (reduced, 200 mM DTT).
Take “GGGCGAGGGTCAGAAAAAGGGGCTGAAACTTCATGGCGCTGATATTGGAGTAATCCGACCAATTAAGTCAAGTTAAAAGTGGCCCTCGTTGTCCATGCATGACAACGGCGAATTTCTCAGTTTCAGTGGGTTTTCGCTCGCTCCCCTGCTTTTGAGTCGCTTTGAAAGGTCAAGCCGTCGTCTCATGACCGCGTGGCGCTTGCCGCGTCGATATGCTGTCGGCAGGATTTCTGACTTTATAGACACAGTGACCATCGGCACTGATACCCGGTCTGAACTTTTGTAATTGTCGCGGCTCCTGAACCCTCACCAGCTCCGCCGACCGCAGACTGAAGGGAAAGCCAGCAGC (double strand) [drB0125 upstream region]”: the binding result is on record as “binds” (oxidized) and “binds” (reduced, 200 mM DTT).

The record behind these values is publication PMC2225504.
